In the supplement of paper PMC10849652:
Some of the results follow.

The chains behind the UniProt entries cited, without tags or fusion partners. Where a name states a change or a piece, a line headed by the entry shows the natural chain unless it says otherwise.
UniProt O60502: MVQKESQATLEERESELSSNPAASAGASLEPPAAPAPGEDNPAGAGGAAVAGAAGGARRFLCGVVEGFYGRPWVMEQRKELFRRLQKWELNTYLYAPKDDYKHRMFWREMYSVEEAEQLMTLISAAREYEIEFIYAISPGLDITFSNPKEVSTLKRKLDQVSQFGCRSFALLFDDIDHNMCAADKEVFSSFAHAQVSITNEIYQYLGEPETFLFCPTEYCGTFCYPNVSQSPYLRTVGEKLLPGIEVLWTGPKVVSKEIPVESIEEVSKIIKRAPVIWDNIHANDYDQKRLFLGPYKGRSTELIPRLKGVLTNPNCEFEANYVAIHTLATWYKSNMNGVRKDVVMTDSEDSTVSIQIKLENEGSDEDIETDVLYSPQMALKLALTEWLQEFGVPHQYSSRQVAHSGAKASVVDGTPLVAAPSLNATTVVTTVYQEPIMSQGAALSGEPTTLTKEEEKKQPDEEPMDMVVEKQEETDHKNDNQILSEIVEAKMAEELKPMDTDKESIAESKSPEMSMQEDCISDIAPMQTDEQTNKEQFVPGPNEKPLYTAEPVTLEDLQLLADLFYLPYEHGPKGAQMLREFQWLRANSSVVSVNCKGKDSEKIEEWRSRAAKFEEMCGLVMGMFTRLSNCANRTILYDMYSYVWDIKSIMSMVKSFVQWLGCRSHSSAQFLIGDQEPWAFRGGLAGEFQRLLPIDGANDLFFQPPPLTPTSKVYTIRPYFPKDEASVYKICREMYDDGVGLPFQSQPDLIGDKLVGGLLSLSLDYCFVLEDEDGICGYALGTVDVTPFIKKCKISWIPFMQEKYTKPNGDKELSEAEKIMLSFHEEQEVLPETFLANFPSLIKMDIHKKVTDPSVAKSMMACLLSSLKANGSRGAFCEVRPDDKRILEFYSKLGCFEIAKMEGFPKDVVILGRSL
UniProt Q8WUM0: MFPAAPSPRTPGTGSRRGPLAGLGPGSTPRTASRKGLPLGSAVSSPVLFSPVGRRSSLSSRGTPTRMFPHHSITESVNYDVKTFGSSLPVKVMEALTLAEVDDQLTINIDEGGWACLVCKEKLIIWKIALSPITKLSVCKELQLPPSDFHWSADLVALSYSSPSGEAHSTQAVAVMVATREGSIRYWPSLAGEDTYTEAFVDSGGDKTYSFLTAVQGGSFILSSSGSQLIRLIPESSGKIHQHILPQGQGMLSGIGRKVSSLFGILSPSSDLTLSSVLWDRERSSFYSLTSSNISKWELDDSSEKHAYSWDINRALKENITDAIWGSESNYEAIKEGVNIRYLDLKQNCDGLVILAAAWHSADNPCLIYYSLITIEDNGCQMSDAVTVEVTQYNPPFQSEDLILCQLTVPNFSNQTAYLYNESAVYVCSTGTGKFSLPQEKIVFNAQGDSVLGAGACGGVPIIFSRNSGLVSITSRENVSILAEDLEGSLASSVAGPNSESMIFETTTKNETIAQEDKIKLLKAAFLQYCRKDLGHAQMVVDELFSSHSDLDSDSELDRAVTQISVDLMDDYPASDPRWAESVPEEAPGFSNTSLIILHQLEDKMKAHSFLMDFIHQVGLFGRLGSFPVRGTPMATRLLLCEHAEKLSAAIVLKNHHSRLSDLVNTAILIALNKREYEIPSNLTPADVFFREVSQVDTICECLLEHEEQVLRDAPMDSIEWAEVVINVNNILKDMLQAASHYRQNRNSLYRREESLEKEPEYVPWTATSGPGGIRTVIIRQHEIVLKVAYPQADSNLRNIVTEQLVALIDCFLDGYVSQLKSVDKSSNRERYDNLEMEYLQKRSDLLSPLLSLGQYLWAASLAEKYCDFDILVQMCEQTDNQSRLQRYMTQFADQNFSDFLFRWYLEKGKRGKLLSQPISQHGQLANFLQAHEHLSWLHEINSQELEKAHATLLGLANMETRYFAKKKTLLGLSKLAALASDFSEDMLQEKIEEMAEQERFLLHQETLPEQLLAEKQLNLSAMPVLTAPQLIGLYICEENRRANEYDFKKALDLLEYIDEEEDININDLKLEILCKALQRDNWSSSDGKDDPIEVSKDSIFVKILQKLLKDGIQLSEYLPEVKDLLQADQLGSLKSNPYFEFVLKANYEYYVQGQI
UniProt O95989: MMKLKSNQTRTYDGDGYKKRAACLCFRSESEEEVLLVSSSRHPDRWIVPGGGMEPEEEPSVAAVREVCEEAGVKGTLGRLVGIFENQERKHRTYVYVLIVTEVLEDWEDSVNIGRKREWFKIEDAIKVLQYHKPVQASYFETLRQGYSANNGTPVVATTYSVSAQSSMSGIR
UniProt Q96P11: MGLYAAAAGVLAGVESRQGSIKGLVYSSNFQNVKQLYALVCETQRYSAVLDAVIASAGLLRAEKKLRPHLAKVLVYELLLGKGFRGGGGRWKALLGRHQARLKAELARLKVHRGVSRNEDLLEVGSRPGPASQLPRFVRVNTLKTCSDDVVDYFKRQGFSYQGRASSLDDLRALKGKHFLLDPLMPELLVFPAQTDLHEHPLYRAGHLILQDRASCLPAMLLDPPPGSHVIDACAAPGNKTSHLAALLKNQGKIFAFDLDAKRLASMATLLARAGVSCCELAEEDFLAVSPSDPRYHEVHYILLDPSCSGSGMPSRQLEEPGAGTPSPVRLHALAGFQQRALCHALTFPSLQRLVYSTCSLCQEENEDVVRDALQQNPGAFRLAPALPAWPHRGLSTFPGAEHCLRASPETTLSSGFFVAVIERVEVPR
UniProt Q9Y266: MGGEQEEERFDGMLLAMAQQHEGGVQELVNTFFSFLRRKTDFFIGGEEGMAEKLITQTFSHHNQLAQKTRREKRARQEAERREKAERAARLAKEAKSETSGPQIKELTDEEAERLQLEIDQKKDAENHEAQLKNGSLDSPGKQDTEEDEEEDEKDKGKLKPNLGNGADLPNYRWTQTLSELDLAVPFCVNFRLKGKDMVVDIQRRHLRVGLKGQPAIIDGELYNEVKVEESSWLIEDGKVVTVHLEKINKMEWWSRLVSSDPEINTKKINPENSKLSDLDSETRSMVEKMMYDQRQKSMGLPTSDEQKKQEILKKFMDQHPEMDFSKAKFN
UniProt Q6GQQ9: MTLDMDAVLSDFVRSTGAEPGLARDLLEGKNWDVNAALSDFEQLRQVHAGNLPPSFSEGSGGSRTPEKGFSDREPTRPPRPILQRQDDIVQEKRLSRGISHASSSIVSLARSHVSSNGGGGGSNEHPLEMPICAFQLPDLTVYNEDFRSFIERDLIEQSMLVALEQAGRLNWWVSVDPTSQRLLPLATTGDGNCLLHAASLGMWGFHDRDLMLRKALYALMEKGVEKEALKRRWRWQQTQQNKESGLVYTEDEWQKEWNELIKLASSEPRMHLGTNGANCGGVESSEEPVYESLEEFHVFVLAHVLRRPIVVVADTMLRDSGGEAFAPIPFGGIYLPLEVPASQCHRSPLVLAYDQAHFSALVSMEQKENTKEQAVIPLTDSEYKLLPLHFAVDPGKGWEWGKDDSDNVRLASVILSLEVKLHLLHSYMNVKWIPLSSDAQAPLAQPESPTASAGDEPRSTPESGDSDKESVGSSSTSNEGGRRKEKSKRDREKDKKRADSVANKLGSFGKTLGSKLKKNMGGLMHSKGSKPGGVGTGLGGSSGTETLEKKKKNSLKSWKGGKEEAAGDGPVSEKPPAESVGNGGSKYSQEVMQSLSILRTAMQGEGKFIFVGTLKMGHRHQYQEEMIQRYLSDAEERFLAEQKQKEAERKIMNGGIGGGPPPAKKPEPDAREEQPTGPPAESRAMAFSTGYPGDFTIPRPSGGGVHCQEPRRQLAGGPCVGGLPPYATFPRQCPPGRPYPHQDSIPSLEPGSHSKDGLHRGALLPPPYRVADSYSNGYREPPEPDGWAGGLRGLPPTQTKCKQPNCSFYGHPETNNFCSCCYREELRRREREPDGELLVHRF
UniProt Q7Z417: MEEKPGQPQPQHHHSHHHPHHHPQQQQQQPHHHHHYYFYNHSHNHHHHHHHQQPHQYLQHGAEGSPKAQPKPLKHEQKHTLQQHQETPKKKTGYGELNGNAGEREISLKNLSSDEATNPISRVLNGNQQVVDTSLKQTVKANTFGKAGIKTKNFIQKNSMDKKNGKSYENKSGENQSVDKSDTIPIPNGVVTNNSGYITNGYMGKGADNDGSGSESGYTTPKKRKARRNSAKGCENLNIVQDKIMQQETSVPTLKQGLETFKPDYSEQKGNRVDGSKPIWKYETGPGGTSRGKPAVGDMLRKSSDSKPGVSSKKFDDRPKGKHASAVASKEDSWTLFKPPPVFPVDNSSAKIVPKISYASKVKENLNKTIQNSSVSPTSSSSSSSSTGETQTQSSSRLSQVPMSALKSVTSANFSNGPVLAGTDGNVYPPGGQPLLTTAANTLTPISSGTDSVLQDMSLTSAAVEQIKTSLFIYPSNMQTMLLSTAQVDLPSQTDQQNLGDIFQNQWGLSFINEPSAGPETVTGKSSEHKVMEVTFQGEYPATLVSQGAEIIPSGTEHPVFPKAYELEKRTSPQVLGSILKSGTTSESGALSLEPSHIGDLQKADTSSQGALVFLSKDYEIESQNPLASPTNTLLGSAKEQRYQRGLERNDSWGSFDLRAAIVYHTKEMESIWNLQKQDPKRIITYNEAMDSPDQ
UniProt O95747, whole entry, looked up: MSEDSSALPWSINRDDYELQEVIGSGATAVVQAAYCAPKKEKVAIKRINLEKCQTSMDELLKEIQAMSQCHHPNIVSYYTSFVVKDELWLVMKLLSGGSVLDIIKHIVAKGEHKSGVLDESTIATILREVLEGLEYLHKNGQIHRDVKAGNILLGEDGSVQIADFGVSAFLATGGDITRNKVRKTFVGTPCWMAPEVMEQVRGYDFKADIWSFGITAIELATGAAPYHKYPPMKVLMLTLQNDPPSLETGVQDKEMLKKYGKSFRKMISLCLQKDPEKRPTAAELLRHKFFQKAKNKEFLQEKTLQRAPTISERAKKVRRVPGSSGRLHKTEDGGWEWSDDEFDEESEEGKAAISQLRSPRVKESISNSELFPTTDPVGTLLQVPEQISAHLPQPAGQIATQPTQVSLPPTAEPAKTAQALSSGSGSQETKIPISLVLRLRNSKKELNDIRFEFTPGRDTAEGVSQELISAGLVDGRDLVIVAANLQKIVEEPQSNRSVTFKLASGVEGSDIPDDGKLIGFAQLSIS
UniProt P04181: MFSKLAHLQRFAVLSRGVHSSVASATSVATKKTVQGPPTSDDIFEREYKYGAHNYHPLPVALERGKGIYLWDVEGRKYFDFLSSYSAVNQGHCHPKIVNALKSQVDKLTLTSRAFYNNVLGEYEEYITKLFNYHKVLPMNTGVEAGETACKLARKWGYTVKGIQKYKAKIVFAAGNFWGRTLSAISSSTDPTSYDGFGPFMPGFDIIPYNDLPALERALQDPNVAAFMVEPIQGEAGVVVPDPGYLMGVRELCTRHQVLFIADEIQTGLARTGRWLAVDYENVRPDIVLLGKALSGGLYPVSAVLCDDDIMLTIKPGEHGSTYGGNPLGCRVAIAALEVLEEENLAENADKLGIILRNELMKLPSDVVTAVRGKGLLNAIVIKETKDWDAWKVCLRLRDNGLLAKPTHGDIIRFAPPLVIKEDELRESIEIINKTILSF
UniProt P20774: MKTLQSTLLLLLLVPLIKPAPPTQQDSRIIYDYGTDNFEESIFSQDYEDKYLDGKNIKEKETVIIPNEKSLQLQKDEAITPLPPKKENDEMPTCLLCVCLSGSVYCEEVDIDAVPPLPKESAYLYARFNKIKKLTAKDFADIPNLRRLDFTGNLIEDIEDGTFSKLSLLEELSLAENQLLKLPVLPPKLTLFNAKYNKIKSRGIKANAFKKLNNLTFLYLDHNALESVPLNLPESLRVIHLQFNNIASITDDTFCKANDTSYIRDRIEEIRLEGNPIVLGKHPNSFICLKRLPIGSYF
UniProt Q8IVL6: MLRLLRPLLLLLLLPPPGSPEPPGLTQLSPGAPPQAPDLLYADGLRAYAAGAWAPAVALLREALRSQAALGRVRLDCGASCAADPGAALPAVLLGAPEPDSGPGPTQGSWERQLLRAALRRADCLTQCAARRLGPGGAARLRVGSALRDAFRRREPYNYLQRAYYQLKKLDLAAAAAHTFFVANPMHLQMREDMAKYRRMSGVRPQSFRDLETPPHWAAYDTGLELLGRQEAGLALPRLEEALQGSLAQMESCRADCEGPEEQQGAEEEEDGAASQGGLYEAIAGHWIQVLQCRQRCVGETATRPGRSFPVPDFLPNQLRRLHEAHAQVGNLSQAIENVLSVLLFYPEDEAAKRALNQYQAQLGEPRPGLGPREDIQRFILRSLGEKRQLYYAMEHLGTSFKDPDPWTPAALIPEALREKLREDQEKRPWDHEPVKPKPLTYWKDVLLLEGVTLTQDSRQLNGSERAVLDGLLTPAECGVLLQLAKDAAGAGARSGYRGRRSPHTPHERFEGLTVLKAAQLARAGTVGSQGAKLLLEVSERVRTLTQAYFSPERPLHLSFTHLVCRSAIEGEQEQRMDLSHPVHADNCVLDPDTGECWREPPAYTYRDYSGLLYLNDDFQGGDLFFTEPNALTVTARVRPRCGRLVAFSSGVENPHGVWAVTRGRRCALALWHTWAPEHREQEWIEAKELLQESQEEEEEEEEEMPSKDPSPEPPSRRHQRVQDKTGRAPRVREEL

Legend:
Assay in all cases: log2 fold change, soluble protein after heating vs DMSO (PISA); higher = thermal stabilisation; K562 cells, 10 uM, 30 min; active = over 0.2 and 3.5 SD of the protein, either way, in both replicates (recomputed)
erlotinib = compound: C#Cc1cccc(Nc2ncnc3cc(OCCOC)c(OCCOC)cc23)c1 [erlotinib]
Outline: (§1)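 Soluble protein was defined as the supernatant after 21,000xg for 90 min. It came from K562 cells at 2×10^6 cells/mL given 10 μM compound for 30 min, heated in aliquots for 3 min across 48°C-58°C, pooled, and extracted in PBS with 0.5% NP-40 at 4°C, and was quantified by TMTpro 16plex LC-MS/MS with equalised channel sums. Thermal stability against control samples, from duplicates, is reported as log2 fold change.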

[1] = compound: C/C(=N\NC(=O)C1=CC(=CC=C1)S(=O)(=O)N2CCOCC2)/C3=C(C=CC(=C3)Cl)O
Outline: as §1

[2] = compound: C1=CC(=C(C=C1Cl)C2=NC3=NC=CN=C3C(=N2)NC4=CC=NC=C4)F
Outline: as §1

[3] = compound: C1=CC(=CC=C1C2=NC3=C(N2)C=C(C=C3)C(=O)N)OC4=CC=C(C=C4)Cl
Outline: as §1

[4] = compound: C1=CC2=C(C=CC(=C2)/C=C\3/C(=O)NC(=NCC4=CC=CS4)S3)N=C1
Outline: as §1

[5] = compound: C1=CC2=NC=CN=C2C=C1/C=C/3\C(=O)NC(=O)S3
Outline: as §1

[6] = compound: C1=CC=C(C=C1)C2=NC(=C(N2)C3=CC=NC=C3)C4=CC(=C(C=C4)Cl)O
Outline: as §1

[7] = compound: C1=CC=C2C(=C1)C3=NNC4=CC=CC(=C43)C2=O
Outline: as §1

[8] = compound: C1CCN(C1)C(=O)NC2=CC=CC(=C2)NC3=NC=C(C(=N3)NCCC4=CN=CN4)Br
Outline: as §1

[9] = compound: C1CN(CCC1(CC2=CC=C(C=C2)Cl)N)C3=NC=NC4=C3C=CN4
Outline: as §1

Measured: log2 fold change

OGA (UniProt O60502)
inactive: erlotinib 0.001 | [1] 0.024 | [2] 0.046 | [3] 0.033 | [4] 0.032 | [5] -0.009 | [6] -0.033 | [7] -0.018 | [8] -0.016 | [9] 0.004

OPLAH (UniProt O14841)
inactive: erlotinib 0.005 | [1] 0.04 | [2] 0.025 | [3] 0.001 | [4] 0.058 | [5] -0.016 | [6] 0.011 | [7] 0.012 | [8] 0.006 | [9] 0.044

NUP133 (UniProt Q8WUM0)
inactive: erlotinib -0.003 | [1] -0.015 | [2] -0.135 | [3] -0.028 | [4] -0.052 | [5] 0.077 | [6] -0.039 | [7] -0.194 | [8] -0.01 | [9] -0.052

NUDT3 (UniProt O95989)
inactive: erlotinib -0.06 | [1] 0.056 | [2] 0.007 | [3] -0.013 | [4] 0.028 | [5] -0.005 | [6] -0.043 | [7] -0.011 | [8] -0.048 | [9] 0.051

NSUN5 isoform 2 (UniProt Q96P11)
inactive: erlotinib -0.027 | [1] 0.121 | [2] -0.051 | [3] 0.029 | [4] -0.053 | [5] -0.069 | [6] -0.148 | [7] 0.114 | [8] 0 | [9] 0.065

NUDC (UniProt Q9Y266)
inactive: erlotinib 0.014 | [1] 0.001 | [2] 0.036 | [3] 0.006 | [4] -0.015 | [5] 0.004 | [6] -0.006 | [7] 0.057 | [8] 0.017 | [9] 0.02

NSMCE4A (UniProt Q9NXX6)
inactive: erlotinib -0.044 | [1] 0.028 | [2] -0.002 | [3] 0.072 | [4] 0.182 | [5] -0.138 | [6] -0.031 | [7] -0.192 | [8] 0.056 | [9] 0.117

NUP43 (UniProt Q8NFH3)
inactive: erlotinib -0.004 | [1] -0.017 | [2] 0.017 | [3] 0.038 | [4] 0.04 | [5] 0.016 | [6] 0.054 | [7] -0.061 | [8] -0.062 | [9] 0.019

OTUD7B (UniProt Q6GQQ9)
inactive: erlotinib 0.121 | [1] 0.129 | [2] 0.09 | [3] -0.088 | [4] 0.162 | [5] -0.144 | [6] 0.079 | [7] -0.148 | [8] -0.208 | [9] 0.014

NUFIP2 (UniProt Q7Z417)
inactive: erlotinib -0.056 | [1] -0.063 | [2] -0.163 | [3] 0.018 | [4] -0.035 | [5] -0.008 | [6] -0.023 | [7] -0.037 | [8] 0.048 | [9] 0.009

NUP85 (UniProt Q9BW27)
inactive: erlotinib 0.046 | [1] 0.08 | [2] 0.037 | [3] 0.036 | [4] 0 | [5] 0.028 | [6] -0.012 | [7] -0.066 | [8] -0.051 | [9] 0.008

OCIAD1 (UniProt Q9NX40)
inactive: erlotinib -0.005 | [1] -0.013 | [2] -0.013 | [3] 0.017 | [4] -0.01 | [5] 0.027 | [6] 0.016 | [7] -0.037 | [8] -0.014 | [9] 0.043

NUP210 (UniProt Q8TEM1)
inactive: erlotinib 0.021 | [1] 0.004 | [2] 0.06 | [3] -0.004 | [4] 0.011 | [5] 0.015 | [6] -0.018 | [7] -0.186 | [8] -0.009 | [9] 0.012

NUDT2 (UniProt P50583)
inactive: erlotinib -0.113 | [1] 0.065 | [2] 0.035 | [3] 0.223 | [4] 0.029 | [5] 0.049 | [6] 0.008 | [7] 0.034 | [8] 0.031 | [9] -0.015

OTUD5 isoform 5 (UniProt Q96G74)
inactive: erlotinib -0.02 | [1] -0.003 | [2] 0.043 | [3] 0.039 | [4] 0.009 | [5] 0.019 | [6] 0.079 | [7] 0.046 | [8] -0.073 | [9] 0.008

Retrieved one by one from above, 2 records:
NUP85 (UniProt Q9BW27)
inactive: erlotinib 0.046 | [1] 0.08 | [2] 0.037 | [3] 0.036 | [4] 0 | [5] 0.028 | [6] -0.012 | [7] -0.066 | [8] -0.051 | [9] 0.008

OCIAD1 (UniProt Q9NX40)
inactive: erlotinib -0.005 | [1] -0.013 | [2] -0.013 | [3] 0.017 | [4] -0.01 | [5] 0.027 | [6] 0.016 | [7] -0.037 | [8] -0.014 | [9] 0.043

Next part

NT5C3A (UniProt Q9H0P0)
inactive: erlotinib 0.045 | [1] -0.025 | [2] -0.105 | [3] 0.054 | [4] 0.016 | [5] -0.035 | [6] -0.057 | [7] 0.068 | [8] -0.026 | [9] -0.231

OXSR1 (UniProt O95747)
inactive: erlotinib 0.042 | [1] 0.091 | [2] -0.024 | [3] -0.056 | [4] 0.106 | [5] 0.004 | [6] 0.039 | [7] 0.054 | [8] -0.008 | [9] 0.007

NT5DC3 (UniProt Q86UY8)
inactive: erlotinib 0.001 | [1] -0.027 | [2] 0.055 | [3] -0.031 | [4] 0 | [5] 0.052 | [6] 0.004 | [7] -0.042 | [8] 0.005 | [9] 0.002

NUDT15 (UniProt Q9NV35)
inactive: erlotinib -0.006 | [1] 0.046 | [2] 0.036 | [3] 0.02 | [4] -0.004 | [5] -0.012 | [6] 0.037 | [7] 0.009 | [8] -0.061 | [9] -0.018

OSBPL8 (UniProt Q9BZF1)
inactive: erlotinib 0.243 | [1] 0.156 | [2] -0.212 | [3] 0.021 | [4] 0.005 | [5] -0.028 | [6] 0.077 | [7] -0.005 | [8] -0.048 | [9] -0.085

NUS1 (UniProt Q96E22)
inactive: erlotinib -0.071 | [1] 0.047 | [2] 0.032 | [3] 0.052 | [4] 0.019 | [5] 0.082 | [6] -0.041 | [7] -0.114 | [8] -0.036 | [9] 0.013

OTULIN (UniProt Q96BN8)
inactive: erlotinib -0.023 | [1] 0.054 | [2] 0.091 | [3] -0.143 | [4] 0.066 | [5] 0.06 | [6] -0.027 | [7] 0.039 | [8] -0.042 | [9] -0.086

OAT (UniProt P04181)
inactive: erlotinib 0.063 | [1] 0.099 | [2] 0.045 | [3] -0.091 | [4] 0.042 | [5] -0.151 | [6] -0.183 | [7] -0.001 | [8] -0.037 | [9] -0.023

OCIAD1 (UniProt D6RDK6)
inactive: erlotinib 0.095 | [1] -0.114 | [2] 0.017 | [3] -0.099 | [4] 0.2 | [5] 0.148 | [6] -0.252 | [7] -0.167 | [8] 0.19 | [9] 0.009

NUP88 (UniProt Q99567)
inactive: erlotinib 0.018 | [1] 0.021 | [2] -0.09 | [3] -0.003 | [4] -0.005 | [5] 0.039 | [6] -0.091 | [7] 0 | [8] 0.012 | [9] -0.103

OARD1 (UniProt Q9Y530)
inactive: erlotinib 0.109 | [1] 0.054 | [2] 0.003 | [3] -0.045 | [4] 0.088 | [5] 0 | [6] 0.045 | [7] 0.075 | [8] -0.087 | [9] 0.023

P4HB (UniProt P07237)
inactive: erlotinib -0.042 | [1] -0.007 | [2] 0.013 | [3] 0 | [4] -0.041 | [5] 0.024 | [6] -0.032 | [7] -0.02 | [8] 0.04 | [9] 0.051

OGN (UniProt P20774)
inactive: erlotinib 0.192 | [1] -0.126 | [2] 0.015 | [3] -0.013 | [4] 0.056 | [5] -0.178 | [6] -0.092 | [7] 0.063 | [8] -0.11 | [9] 0.058

NUCKS1 (UniProt Q9H1E3)
inactive: erlotinib 0.045 | [1] -0.098 | [2] -0.002 | [3] -0.029 | [4] -0.052 | [5] 0 | [6] -0.089 | [7] 0.033 | [8] 0.067 | [9] -0.002

P3H3 (UniProt Q8IVL6)
inactive: [2] 0.014 | [8] 0.199 | [9] 0.106
